These are yes or no findings as the source states them, for the method shown. In cells and extracts the contact can be indirect. A yes stands for co-enrichment or nearness to the bait. Other partners may have been found. Sequences can lack the tags named with a protein.
Biological target: T1, Flag-SIRT4 (Sirtuin 4), stably overexpressed in AML12 hepatocytes (UniProt Q8R216)
T1 sequence: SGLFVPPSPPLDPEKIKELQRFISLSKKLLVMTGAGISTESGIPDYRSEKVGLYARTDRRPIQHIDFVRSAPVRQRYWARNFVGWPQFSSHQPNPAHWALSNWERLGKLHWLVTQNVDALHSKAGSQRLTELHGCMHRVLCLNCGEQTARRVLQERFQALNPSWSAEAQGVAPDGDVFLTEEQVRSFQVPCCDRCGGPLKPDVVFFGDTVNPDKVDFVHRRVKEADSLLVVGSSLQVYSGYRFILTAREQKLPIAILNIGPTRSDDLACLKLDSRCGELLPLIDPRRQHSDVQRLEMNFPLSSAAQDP
Test: affinity purification with mass spectrometry; lysate of SIRT4-overexpressing (Flag-SIRT4) AML12 cells after H/R; anti-flag antibody with protein A/G agarose beads overnight at 4°C; LC-MS/MS, Flag cells as control

- binding: binds
B1: peroxiredoxin 3 (PRDX3), endogenous in AML12 hepatocytes (protein, UniProt P20108 63-257)
chain: TPAVTQHAPYFKGTAVVNGEFKELSLDDFKGKYLVLFFYPLDFTFVCPTEIVAFSDKANEFHDVNCEVVAVSVDSHFSHLAWINTPRKNGGLGHMNITLLSDITKQISRDYGVLLESAGIALRGLFIIDPNGVVKHLSVNDLPVGRSVEETLRLVKAFQFVETHGEVCPANWTPESPTIKPSPTASKEYFEKVHQ
